{
  "sequences": {"note": "Chains of the proteins cited; added tags and fusions are not shown.", "UniProt Q92830, whole entry, looked up": "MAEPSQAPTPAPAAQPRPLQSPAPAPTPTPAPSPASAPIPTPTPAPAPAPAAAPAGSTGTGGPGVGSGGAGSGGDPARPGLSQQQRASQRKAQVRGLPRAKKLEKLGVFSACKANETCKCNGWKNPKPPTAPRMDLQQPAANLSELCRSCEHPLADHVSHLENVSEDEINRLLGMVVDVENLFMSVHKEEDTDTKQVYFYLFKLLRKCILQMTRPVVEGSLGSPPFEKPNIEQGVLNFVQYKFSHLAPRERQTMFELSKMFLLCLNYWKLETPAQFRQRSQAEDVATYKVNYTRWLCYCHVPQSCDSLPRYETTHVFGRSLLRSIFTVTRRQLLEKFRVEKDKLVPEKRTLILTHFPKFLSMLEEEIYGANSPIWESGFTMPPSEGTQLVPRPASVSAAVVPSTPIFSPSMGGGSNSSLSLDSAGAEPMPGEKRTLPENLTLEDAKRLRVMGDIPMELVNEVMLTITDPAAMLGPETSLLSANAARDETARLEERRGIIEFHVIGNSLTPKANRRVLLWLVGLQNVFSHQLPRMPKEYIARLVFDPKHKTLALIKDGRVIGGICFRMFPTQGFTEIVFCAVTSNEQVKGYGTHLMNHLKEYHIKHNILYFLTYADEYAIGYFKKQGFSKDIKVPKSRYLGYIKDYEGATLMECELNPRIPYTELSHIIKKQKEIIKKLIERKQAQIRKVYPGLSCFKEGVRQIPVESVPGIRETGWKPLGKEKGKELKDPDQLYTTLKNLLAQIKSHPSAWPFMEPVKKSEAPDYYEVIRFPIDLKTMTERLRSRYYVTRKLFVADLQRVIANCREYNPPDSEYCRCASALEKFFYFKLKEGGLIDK"},
  "source": "PubChem BioAssay AID504327",
  "about": "(National Center for Advancing Translational Sciences (NCATS), 2011)",
  "note": "Screen size: about 390,000 compounds; about 820 (0.21%) were called active. The shares of active, inactive and inconclusive entries below differ from those in the screen. The call rests on the fitted dose curve; in most records, active means well fitted inhibition curve with a large enough effect; inconclusive means small, poorly fitted or top-dose-only effect, or another doubt; inactive means no such curve, though single readings can be large or run the other way. Potencies beside an inconclusive call are fits to weak or partial responses and may not hold up. On the % scale 0 is the no-effect control and ±100 the full control effect; potency means the concentration at half of the fitted maximal effect.",
  "data": [
    {"biological_target": "Histone acetyltransferase KAT2A (Homo sapiens) (UniProt Q92830)", "assay": "qHTS Assay for Inhibitors of GCN5L2", "details": "GCN5L2 HAT assay, ThioGlo1 CoA-SH fluorescence; activity change, negative = inhibition: at 58.9 µM (top of the series) unless noted", "in_short": "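Compounds, pin-transferred from DMSO stocks, meet 20nM GCN5L2 for 15 min before the reaction begins with H3(1-25) peptide (75uM) and acetyl-CoA (70uM). Thiol-reactive ThioGlo1 reports CoA release over 20 min at room temperature.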", "values": [
      {"molecule": "Cc1cc(OCC(=O)N2CCC(O)CC2)c2c(C)cc(=O)oc2c1", "Potency": "inconclusive: 39.8 µM [inhibitor, single point]"},
      {"molecule": "O=C(COC(=O)c1ccccc1C(=O)c1ccccc1)NCc1ccc(F)cc1", "activity change, negative = inhibition": "inactive: -6.17%"},
      {"molecule": "Cc1cc2c(cc1S(=O)(=O)N(C)C1CCCCC1)OCC(=O)N2", "Potency": "inconclusive: 3.55 µM [inhibitor, single point]"},
      {"molecule": "Oc1cccc(/C=N/Nc2cc(N3CCOCC3)nc(N3CCOCC3)n2)c1", "activity change, negative = inhibition": "inactive: -5.4%"},
      {"molecule": "CCn1nnc2cc(C(=O)Nc3cccc(Cl)c3)ccc21", "Potency": "inconclusive: 0.794 µM [inhibitor, single point]"},
      {"molecule": "CN(C(=O)CSc1nc2ccc([N+](=O)[O-])cc2s1)C1CCS(=O)(=O)C1", "note": "(stereo not given)", "Potency": "inconclusive: 0.708 µM [inhibitor, full curve, poor fit]"},
      {"molecule": "CCCCOc1ccc(CNC(=O)CN2CCSc3ccccc32)cc1", "Potency": "inconclusive: 39.8 µM [inhibitor, single point]"},
      {"molecule": "Oc1c(Br)cc(/C=N/n2c(-c3ccccc3)n[nH]c2=S)c(Br)c1O", "Potency": "inconclusive: 28.2 µM [inhibitor, partial curve]"},
      {"molecule": "COc1cccc(NC(=O)c2sc3nc(C)c(C(=O)Nc4ccc(C)cc4C)c(-c4ccccc4Cl)c3c2N)c1", "Potency": "inconclusive: 28.2 µM [inhibitor, partial curve]"},
      {"molecule": "O=C(Nc1ccccc1C(=O)N1CCN(Cc2ccccc2)CC1)c1ccccc1", "activity change, negative = inhibition": "inactive: -0.538%"},
      {"molecule": "CCNC(=S)Nc1cc2oc3ccccc3c2cc1OC", "Potency": "inconclusive: 0.316 µM [inhibitor, full curve, poor fit]"},
      {"molecule": "CCCNC(=O)Cn1c(=O)n(C)c2ccccc21", "activity change, negative = inhibition": "inactive: -1.05%"},
      {"molecule": "CCc1ccc(-n2c(=O)c3c4c(sc3n(CC(=O)NCCCOC)c2=O)CCCC4)cc1", "activity change, negative = inhibition": "inactive: -14.7%"},
      {"molecule": "Cc1ccc(CN2CC34C=CC(O3)C(C(=O)NCc3ccc5c(c3)OCO5)C4C2=O)cc1", "note": "(stereo not given)", "Potency": "inconclusive: 7.08 µM [inhibitor, single point]"},
      {"molecule": "COc1cc(OC)c(OC)cc1CN1CCN(C(=O)CC(C)C)CC1", "Potency": "inconclusive: 0.708 µM [inhibitor, single point]"},
      {"molecule": "Cc1cc(=O)oc2cc(OCC(=O)N3CCOCC3)ccc12", "Potency": "inconclusive: 39.8 µM [inhibitor, single point]"},
      {"molecule": "CCN(c1ccccc1)S(=O)(=O)c1ccc(OC)c(NC(=O)c2ccccc2OC)c1", "Potency": "inconclusive: 39.8 µM [inhibitor, single point]"},
      {"molecule": "CC(C)(C)c1ccc(OCCC(=O)OCC(=O)NC2CCCCC2)cc1", "activity change, negative = inhibition": "inactive: 2.94%"},
      {"molecule": "CCCCCCC/C=C\\CCCCCCCCC(=O)O", "Potency": "active: 8.91 µM"},
      {"molecule": "COc1cccc(OC)c1C(=O)NC(=S)NCc1cccnc1", "Potency": "inconclusive: 3.55 µM [inhibitor, partial curve, poor fit]"}
    ]}
  ]
}
